From publication PMC7456924
Results are given in words; binding and its absence hold for the method and conditions named. In cells and extracts the contact can be indirect. Some binding calls cover weakened binding; strength is not graded here. Where a sequence is shown, tags or fusion partners need not be part of it.

How the values were obtained:
Assay in all cases: split reporter; BiFC in planta: N. benthamiana leaves agroinfiltrated with pSITE-nEYFP-C1 and pSITE-cEYFP-C1 fusions, confocal microscopy three days after agroinfiltration
[1] = molecular target: T1, APS1 (ATP sulfurylase), BiFC fusion (A. thaliana) (UniProt Q9LIK9)
T1 sequence: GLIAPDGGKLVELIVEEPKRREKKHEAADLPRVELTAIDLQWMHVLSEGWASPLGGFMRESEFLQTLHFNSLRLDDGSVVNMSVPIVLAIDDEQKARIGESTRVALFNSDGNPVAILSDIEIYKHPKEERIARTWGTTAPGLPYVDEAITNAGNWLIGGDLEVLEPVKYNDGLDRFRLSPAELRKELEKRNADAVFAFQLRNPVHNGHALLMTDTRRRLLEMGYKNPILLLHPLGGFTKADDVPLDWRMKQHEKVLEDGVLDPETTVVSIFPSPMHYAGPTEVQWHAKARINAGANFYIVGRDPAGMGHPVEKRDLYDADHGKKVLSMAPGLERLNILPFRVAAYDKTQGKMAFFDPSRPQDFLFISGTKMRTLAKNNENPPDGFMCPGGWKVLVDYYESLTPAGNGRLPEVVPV

[2] = molecular target: T2, CAT2 (peroxisomal catalase), BiFC fusion (A. thaliana) (UniProt P25819)
T2 sequence: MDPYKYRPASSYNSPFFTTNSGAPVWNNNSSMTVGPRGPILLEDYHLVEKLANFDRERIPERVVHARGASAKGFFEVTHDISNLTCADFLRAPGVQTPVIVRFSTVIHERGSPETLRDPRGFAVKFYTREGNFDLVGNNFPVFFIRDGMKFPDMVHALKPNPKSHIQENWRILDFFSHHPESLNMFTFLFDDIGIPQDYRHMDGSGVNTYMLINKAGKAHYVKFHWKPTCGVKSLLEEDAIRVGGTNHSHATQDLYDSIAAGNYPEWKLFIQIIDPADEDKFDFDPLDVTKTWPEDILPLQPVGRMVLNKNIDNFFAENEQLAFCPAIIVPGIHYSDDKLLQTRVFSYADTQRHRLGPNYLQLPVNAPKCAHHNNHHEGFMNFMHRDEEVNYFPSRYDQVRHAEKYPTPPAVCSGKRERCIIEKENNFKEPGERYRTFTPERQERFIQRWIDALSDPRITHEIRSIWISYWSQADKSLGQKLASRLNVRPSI

[3] = molecular target: T3, LSU2, BiFC fusion (nYFP-LSU2 or cYFP-LSU2) (A. thaliana) (UniProt Q9FIR9)
T3 sequence: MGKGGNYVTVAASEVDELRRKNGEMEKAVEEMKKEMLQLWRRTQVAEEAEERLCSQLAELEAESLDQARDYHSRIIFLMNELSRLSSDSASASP

[4] = molecular target: T4, LSU3, BiFC fusion (nYFP-LSU3 or cYFP-LSU3) (A. thaliana) (UniProt Q9SCK2)
T4 sequence: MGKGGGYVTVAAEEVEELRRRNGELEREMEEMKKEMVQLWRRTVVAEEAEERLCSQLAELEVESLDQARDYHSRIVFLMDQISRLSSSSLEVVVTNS

[5] = molecular target: T5, LSU4, BiFC fusion (nYFP-LSU4 or cYFP-LSU4) (A. thaliana) (UniProt Q8L8S2)
T5 sequence: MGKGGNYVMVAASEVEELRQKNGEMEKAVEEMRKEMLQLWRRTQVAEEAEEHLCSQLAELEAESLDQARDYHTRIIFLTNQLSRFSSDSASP

[6] = molecular target: T6, NBR1 (selective autophagy cargo receptor), BiFC fusion (A. thaliana) (UniProt Q9SB64)
T6 sequence: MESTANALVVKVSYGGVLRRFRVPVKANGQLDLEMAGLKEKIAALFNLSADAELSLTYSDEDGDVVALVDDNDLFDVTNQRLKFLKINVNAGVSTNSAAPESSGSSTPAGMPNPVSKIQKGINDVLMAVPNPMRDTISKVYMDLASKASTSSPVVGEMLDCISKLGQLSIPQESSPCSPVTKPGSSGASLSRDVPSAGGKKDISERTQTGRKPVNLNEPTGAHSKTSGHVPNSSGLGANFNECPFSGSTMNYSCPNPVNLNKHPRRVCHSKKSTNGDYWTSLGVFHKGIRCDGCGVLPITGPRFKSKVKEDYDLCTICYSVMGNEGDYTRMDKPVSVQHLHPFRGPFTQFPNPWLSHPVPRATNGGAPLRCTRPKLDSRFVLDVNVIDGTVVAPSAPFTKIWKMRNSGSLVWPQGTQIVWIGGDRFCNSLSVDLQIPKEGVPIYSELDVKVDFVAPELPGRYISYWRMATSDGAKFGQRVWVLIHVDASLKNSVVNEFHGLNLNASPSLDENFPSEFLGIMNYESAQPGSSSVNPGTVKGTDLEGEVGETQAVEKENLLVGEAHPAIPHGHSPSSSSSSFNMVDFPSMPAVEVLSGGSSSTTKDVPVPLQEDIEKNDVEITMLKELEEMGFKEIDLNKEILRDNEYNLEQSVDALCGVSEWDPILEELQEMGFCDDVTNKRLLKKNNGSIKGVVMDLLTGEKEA

[7] = molecular target: T7, RAF2/SDIRIP1, BiFC fusion (A. thaliana) (UniProt Q9LU63)
T7 sequence: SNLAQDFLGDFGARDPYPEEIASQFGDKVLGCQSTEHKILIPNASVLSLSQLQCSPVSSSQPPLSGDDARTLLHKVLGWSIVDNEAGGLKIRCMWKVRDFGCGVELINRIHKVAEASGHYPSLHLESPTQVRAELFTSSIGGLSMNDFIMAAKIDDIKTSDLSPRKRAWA

binding [1]: binds
binding [2]: binds
binding [3]: binds
binding [4]: binds
binding [5]: binds
binding [6]: binds
binding [7]: binds
B1: LSU1, BiFC fusion (nYFP-LSU1 or cYFP-LSU1) (protein, UniProt Q9SCK1 1-94)
chain: MANRGGCVTVAAEEMDELRRRNIELSREVAEMKTEMIKLWQRTVVAEEAEEQLCSQLAELEVESLEQARDYHDRMLFLMDQISRLSSSSVVSSS
